Some of these results come from one statement about several compounds together.
Tested on: norA induction
Assay type: cell-based, S. aureus
Conditions: wild-type Newman strain, oxidation challenge vs none

## C[n+]1ccc(-c2cc[n+](C)cc2)cc1 [PQ, paraquat]
  Increase of norA induction: 2-3 folds
